Measured values reported in article PMC9318816, “Differential Effects of a Novel Opioid Ligand UTA1003 on Antinociceptive Tolerance and Motor Behaviour” (Pharmaceuticals, 2022).
Entries after “also recorded” stand apart in the source; their conditions may differ.

Legend:
[1] = test system: Sprague Dawley rats; experiment: Hot plate antinociception assay; conditions: 8 days, s.c. twice daily
[2] = test system: Sprague Dawley rats; experiment: Tail flick antinociception assay; conditions: 8 days, s.c. twice daily

## CN1CC[C@]23c4c5ccc(O)c4O[C@H]2[C@@H](O)C=C[C@H]3[C@H]1C5 [morphine]
[1]
  Total antinociception (AUC), hot plate: higher than UTA1003; also recorded: lower than UTA1003/morphine group
[2]
  Total antinociception (AUC), tail flick: higher than UTA1003; also recorded: lower than UTA1003/morphine group
